According to the supplement of paper PMC7877785:
± gives the uncertainty stated by the source. Many entries were measured with a wide error.

Experiment: self-splicing fitness, log relative to wild type (ln ratio); higher = more splicing; Tetrahymena group I intron in knt gene, E. coli kanamycin selection, DiMSum; sequences stand for … in CUCUCU…GGAGGGAAAAGUUAUCAGGCAUGCACCUGGUAGCUAGUCUUUAAACCAAUAGAUUGCAUCGGUUUAAAAGGCAAGACCGUCAAAUUGCGGGAAAGGGGUCAACAGCCGUUCAGUACCAAGUCUCAGGGGAAACUUUGAGAUGGCCUUGCAAAGGGUAUGGUAAUAAGCUGACGGACAUGGUCCUAACCACGCAGCCAAGUCCUAAGUCAACAGAUCUUCUGUUGAUAUGGAUGCAGUUCACAGACUAAAUGUCGGUCGGGGAAGAUGUAUUCUUCUCAUAAGAUAUAGUCGGACCUCUCCUUAAUGGGAGCUAGCGGAUGAAGUGAUGCAACACUGGAGCCGCUGGGAACUAAUUUGUAUGCGAAAGUAUAUUGAUUAGUUUUGGAGUACUCGUGGUCG
Procedure, shortened: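 Pooled colonies went to amplicon sequencing on an Illumina HiSeq 2500 after six replicate transformations. The plates were LB agar with 100 μg/mL carbenicillin, 50 μM IPTG and 0.2% rhamnose, with or without 25 μg/mL kanamycin, incubated overnight at 37°C or 30°C. The E. coli BL21(DE3) library had all eight P1ex-region intron nucleotides randomised, the intron placed in the knt kanamycin-resistance gene on pET-22b(+). DiMSum fitness is the error-weighted combination of replicate fold changes, kanamycin against none, normalised to wild type.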

Sequence	self-splicing fitness (ln) (37 °C)	self-splicing fitness (ln) (30 °C)
AGUAAGCAAUAUUACGUAAC	-2.48 ± 0.54	
UGUGAGCAAUAUUACGGAUU	-1.59 ± 0.34	-3.17 ± 0.54
UGUCAGCAAUAUUACGUCCC	-2.07 ± 0.65	-0.651 ± 0.68
CUACAGCAAUAUUACGGCCC	-2.3 ± 0.62	-3.44 ± 0.6
GAUAAGCAAUAUUACGGAGA	-2.78 ± 0.24	-3.48 ± 0.36
UUCUAGCAAUAUUACGAAUG	-3.17 ± 0.61	
CUACAGCAAUAUUACGGUGC	-2 ± 0.17	-4.58 ± 0.28
CUGAAGCAAUAUUACGCGCC	-0.628 ± 0.56	
AUGCAGCAAUAUUACGUCCC	-1.89 ± 0.52	-1.53 ± 0.42
UAGGAGCAAUAUUACGGCAA		-2.2 ± 0.53
AUGUAGCAAUAUUACGGAAC	-1.16 ± 0.41	-4.98 ± 0.73
CUACAGCAAUAUUACGACCC	-1.61 ± 0.52	-3.28 ± 0.55
AGAGAGCAAUAUUACGGAGG	-2.55 ± 0.76	-3.9 ± 0.74
CGAAAGCAAUAUUACGCCGC		-2.67 ± 0.62
UUAUAGCAAUAUUACGAUCC		-2.95 ± 0.66
UAGGAGCAAUAUUACGCGAA	-2.36 ± 0.55	-3.07 ± 1.1
ACAGAGCAAUAUUACGCCCU	-2.02 ± 0.3	-3.23 ± 0.23
CUGGAGCAAUAUUACGCCUU		-4.16 ± 1
GCCGAGCAAUAUUACGAUCU		-2.66 ± 0.69

Sequence	self-splicing fitness (ln) (37 °C)	self-splicing fitness (ln) (30 °C)
UCAAAGCAAUAUUACGCGAC	-2.79 ± 0.61	-3.19 ± 0.53
GGUGAGCAAUAUUACGCCAA	-1.73 ± 0.87	-1.12 ± 0.54
UGGGAGCAAUAUUACGUGAA	-0.758 ± 0.55	-2.16 ± 0.61
UGCGAGCAAUAUUACGAUUC	-1.93 ± 0.81	
AUGGAGCAAUAUUACGUCCA	-0.778 ± 0.34	-0.783 ± 0.45
AUGGAGCAAUAUUACGCGCU	-1.13 ± 1.2	-2.21 ± 0.63
CGCGAGCAAUAUUACGCCAC	-1.82 ± 0.53	
UGUUAGCAAUAUUACGGAGG	-2.17 ± 0.56	
AGUGAGCAAUAUUACGUUAC	-3.49 ± 0.73	
AUGGAGCAAUAUUACGCUAC		-1.64 ± 0.6
GUCAAGCAAUAUUACGCCCU	0.51 ± 0.15	-0.585 ± 0.16
CAUAAGCAAUAUUACGCAUC		-2.91 ± 0.75
CUAAAGCAAUAUUACGCCGC	-1.78 ± 0.54	
UCAGAGCAAUAUUACGCUCU	-2.51 ± 0.64	-3.03 ± 1.1
CAAAAGCAAUAUUACGGCAG	-0.164 ± 0.089	0.126 ± 0.077
ACGGAGCAAUAUUACGGAUA	-2.61 ± 0.42	-3.27 ± 0.33
GUGUAGCAAUAUUACGCAAC		-2.77 ± 0.78
UUAGAGCAAUAUUACGCCAC	-1.57 ± 0.54	-2.87 ± 1.1
UUUGAGCAAUAUUACGCAUA		-0.813 ± 0.73

Sequence	self-splicing fitness (ln) (37 °C)	self-splicing fitness (ln) (30 °C)
UUAAAGCAAUAUUACGAAUU	-2.46 ± 0.21	-1.97 ± 0.11
GGAGAGCAAUAUUACGCAGA	-2.2 ± 1.1	-1.87 ± 0.81
GCGUAGCAAUAUUACGGCCA		-2.1 ± 0.65
AUUGAGCAAUAUUACGCAAA	-1.72 ± 0.51	
CUCCAGCAAUAUUACGGCGG	-3.1 ± 0.22	-4.65 ± 0.28
CGGGAGCAAUAUUACGAAGU		-3.58 ± 0.73
UUGGAGCAAUAUUACGUUUA	-2.91 ± 0.61	
CCUAAGCAAUAUUACGAAUA	-3.27 ± 0.52	
UGCAAGCAAUAUUACGCUUG		-4.3 ± 0.6
CCUUAGCAAUAUUACGCCAG		-4.12 ± 0.52
CUAAAGCAAUAUUACGAUAC		-5.29 ± 0.51
CUUGAGCAAUAUUACGCACC		-1.87 ± 0.52
UCUUAGCAAUAUUACGGGAA		-2.8 ± 0.57
CCAGAGCAAUAUUACGACCA	-2.76 ± 1.1	-3.33 ± 0.53
GACAAGCAAUAUUACGGAUG	-1.75 ± 0.12	-2.92 ± 0.11
GUUAAGCAAUAUUACGAGAC	-0.662 ± 0.25	-4.77 ± 0.59
CCUUAGCAAUAUUACGAUAU	-1.98 ± 0.53	-2.62 ± 0.62
CUUAAGCAAUAUUACGCCUC	-1.6 ± 0.69	
GCGAAGCAAUAUUACGCCUC	-2.7 ± 0.54	

A different layout for some results above.
Sequence,self-splicing fitness (ln) (37 °C),self-splicing fitness (ln) (30 °C)
AUUGAGCAAUAUUACGCAAA,-1.72 ± 0.51,
CGGGAGCAAUAUUACGAAGU,,-3.58 ± 0.73
UUGGAGCAAUAUUACGUUUA,-2.91 ± 0.61,
CUAAAGCAAUAUUACGAUAC,,-5.29 ± 0.51
CUUAAGCAAUAUUACGCCUC,-1.6 ± 0.69,
